Test results taken from the supplement of paper PMC10849652.
The other results are listed elsewhere or left out.

Protein sequences, listed by entry. Tags and fused reporters are not part of them. Lines headed by an entry give the natural chain unless they say otherwise; changes in a name come on top.
UniProt Q9UNS2: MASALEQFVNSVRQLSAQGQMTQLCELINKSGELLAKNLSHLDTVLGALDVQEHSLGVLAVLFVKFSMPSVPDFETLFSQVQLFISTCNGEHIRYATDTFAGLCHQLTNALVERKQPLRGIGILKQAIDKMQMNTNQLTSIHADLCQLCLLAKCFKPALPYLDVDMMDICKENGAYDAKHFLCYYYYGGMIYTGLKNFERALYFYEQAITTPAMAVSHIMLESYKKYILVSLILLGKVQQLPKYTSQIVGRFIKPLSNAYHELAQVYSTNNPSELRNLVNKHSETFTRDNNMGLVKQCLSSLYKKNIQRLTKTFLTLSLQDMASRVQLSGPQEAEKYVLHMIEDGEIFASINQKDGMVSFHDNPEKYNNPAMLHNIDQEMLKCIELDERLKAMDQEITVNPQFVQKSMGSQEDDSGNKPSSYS
UniProt P14406, whole entry, looked up: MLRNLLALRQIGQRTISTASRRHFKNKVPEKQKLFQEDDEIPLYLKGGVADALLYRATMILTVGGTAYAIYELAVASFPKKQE
UniProt Q9ULM6, whole entry, looked up: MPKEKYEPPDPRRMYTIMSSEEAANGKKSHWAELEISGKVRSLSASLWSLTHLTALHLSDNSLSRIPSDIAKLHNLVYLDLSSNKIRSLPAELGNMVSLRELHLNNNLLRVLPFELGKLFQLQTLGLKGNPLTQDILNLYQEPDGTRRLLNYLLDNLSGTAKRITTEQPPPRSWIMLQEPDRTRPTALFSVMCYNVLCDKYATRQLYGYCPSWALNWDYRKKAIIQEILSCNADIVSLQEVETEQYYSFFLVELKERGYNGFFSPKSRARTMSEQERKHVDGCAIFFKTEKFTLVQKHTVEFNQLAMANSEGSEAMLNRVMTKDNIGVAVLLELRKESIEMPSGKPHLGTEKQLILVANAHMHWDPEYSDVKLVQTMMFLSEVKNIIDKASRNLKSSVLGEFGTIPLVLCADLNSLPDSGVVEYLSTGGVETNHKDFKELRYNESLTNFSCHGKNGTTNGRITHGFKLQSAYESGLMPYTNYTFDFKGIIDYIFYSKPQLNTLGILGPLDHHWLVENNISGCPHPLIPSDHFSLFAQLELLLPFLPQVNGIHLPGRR
UniProt Q9UIV1, whole entry, looked up: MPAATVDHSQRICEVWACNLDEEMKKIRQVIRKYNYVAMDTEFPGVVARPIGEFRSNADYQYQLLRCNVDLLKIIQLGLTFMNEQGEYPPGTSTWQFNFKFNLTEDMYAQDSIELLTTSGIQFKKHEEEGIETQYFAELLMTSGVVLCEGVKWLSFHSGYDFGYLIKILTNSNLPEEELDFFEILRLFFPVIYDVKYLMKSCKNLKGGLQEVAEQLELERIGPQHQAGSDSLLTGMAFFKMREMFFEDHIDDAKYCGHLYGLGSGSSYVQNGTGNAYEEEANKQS
UniProt P20674, whole entry, looked up: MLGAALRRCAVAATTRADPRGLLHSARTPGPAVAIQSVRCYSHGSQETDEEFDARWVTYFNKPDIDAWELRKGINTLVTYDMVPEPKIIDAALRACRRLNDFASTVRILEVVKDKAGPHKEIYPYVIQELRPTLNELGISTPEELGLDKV
UniProt Q9NQ92: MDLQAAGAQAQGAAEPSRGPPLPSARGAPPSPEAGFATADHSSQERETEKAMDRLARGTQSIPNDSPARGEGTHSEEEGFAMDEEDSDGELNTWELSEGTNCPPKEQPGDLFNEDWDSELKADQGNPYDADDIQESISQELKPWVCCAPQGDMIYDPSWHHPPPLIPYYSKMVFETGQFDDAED
UniProt Q99807: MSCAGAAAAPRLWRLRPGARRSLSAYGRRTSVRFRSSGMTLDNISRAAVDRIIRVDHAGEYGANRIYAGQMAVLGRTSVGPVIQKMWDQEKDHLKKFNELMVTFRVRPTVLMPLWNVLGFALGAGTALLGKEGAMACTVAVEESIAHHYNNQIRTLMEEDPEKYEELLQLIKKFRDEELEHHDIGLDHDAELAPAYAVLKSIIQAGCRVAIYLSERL
UniProt Q14019: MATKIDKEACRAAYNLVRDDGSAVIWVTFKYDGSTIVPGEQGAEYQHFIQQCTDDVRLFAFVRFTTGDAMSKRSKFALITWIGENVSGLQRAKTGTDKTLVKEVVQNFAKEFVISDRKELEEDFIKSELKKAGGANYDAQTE
UniProt Q9Y6N1: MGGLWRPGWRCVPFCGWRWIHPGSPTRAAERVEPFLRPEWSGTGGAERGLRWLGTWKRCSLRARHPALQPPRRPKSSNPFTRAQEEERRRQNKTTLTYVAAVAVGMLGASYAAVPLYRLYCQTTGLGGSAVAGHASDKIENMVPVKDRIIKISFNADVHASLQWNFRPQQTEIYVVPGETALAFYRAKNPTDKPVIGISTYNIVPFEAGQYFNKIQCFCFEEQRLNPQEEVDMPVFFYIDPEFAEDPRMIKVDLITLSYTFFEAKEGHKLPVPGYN
UniProt P78560: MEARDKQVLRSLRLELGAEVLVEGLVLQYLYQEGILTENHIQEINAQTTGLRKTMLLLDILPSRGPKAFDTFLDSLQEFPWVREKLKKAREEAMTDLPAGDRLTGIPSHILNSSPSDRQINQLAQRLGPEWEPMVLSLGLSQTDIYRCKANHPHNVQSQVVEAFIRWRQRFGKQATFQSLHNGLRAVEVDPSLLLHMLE
UniProt Q8N668, whole entry, looked up: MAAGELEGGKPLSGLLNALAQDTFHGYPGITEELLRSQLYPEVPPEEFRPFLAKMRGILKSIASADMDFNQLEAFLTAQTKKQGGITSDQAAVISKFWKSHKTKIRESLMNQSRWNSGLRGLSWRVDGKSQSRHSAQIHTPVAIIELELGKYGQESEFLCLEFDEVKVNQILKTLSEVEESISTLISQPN
UniProt Q8N684: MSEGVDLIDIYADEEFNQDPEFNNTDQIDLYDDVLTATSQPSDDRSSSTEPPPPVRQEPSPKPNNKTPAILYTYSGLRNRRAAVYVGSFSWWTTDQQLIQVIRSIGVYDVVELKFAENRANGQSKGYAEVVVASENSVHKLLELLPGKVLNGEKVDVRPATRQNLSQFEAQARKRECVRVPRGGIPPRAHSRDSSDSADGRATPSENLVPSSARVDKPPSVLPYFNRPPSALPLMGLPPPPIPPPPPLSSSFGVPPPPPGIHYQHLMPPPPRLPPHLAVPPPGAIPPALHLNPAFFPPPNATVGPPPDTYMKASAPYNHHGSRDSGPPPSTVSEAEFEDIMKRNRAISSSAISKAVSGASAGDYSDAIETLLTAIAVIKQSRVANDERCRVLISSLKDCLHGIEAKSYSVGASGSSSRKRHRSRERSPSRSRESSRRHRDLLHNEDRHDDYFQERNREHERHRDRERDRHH
UniProt Q86VU5: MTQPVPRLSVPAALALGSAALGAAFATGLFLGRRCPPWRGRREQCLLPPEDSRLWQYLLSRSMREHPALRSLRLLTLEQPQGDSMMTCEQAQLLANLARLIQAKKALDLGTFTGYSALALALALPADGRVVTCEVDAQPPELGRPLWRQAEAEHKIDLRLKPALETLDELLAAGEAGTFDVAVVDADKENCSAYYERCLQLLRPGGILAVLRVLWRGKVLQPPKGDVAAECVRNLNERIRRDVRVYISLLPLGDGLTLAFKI
UniProt Q8N8Q8: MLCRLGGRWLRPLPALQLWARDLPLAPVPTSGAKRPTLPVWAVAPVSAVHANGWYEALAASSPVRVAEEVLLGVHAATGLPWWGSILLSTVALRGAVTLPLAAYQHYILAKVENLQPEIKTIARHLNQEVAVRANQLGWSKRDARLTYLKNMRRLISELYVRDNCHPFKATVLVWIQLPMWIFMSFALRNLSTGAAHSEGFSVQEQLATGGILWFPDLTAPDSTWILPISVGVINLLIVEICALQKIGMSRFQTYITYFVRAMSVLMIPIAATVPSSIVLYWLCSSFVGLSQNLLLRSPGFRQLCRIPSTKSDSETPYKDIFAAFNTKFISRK
UniProt Q49B96: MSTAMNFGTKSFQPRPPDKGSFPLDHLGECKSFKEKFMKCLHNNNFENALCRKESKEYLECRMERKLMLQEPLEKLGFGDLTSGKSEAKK
UniProt P61923: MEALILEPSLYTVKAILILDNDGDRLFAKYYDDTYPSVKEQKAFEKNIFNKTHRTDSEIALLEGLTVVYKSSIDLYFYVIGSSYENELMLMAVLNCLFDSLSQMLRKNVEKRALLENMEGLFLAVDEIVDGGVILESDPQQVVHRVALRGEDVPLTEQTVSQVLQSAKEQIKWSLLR
UniProt Q10570: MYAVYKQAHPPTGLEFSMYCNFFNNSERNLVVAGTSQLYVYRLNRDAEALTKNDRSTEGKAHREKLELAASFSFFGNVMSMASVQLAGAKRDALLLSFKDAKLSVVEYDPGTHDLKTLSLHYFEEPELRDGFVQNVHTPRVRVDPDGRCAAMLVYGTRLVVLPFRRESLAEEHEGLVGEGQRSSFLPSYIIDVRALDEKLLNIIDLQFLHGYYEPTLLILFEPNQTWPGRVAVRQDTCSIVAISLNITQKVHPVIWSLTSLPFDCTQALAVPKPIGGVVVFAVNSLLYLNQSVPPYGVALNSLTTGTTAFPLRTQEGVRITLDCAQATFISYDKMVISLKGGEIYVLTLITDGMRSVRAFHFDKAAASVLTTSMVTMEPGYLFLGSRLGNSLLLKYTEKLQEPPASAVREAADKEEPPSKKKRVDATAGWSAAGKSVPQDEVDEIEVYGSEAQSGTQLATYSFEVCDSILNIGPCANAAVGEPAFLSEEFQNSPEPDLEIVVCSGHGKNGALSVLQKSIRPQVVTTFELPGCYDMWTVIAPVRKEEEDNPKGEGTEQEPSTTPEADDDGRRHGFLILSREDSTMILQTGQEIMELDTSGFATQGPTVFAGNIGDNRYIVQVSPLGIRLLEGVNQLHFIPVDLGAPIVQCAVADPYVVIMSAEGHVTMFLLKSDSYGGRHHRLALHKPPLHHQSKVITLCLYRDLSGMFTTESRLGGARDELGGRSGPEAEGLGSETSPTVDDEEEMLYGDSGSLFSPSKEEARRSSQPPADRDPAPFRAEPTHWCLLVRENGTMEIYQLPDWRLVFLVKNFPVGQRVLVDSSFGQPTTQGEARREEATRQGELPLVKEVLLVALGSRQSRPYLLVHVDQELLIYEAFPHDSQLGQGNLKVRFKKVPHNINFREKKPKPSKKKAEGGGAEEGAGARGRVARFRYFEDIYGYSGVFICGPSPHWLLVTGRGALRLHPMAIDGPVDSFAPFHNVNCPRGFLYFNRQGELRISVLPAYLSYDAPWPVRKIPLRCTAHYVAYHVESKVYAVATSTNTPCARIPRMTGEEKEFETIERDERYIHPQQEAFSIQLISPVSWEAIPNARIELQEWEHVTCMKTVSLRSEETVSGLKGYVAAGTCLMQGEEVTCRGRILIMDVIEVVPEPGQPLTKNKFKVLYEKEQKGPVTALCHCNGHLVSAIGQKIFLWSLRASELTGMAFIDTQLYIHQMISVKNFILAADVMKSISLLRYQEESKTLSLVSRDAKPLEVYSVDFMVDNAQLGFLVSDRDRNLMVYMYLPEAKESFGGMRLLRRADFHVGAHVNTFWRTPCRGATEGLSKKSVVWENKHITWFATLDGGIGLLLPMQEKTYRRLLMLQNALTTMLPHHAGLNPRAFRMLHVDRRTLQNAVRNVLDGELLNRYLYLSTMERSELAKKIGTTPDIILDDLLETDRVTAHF
UniProt Q9Y2B0: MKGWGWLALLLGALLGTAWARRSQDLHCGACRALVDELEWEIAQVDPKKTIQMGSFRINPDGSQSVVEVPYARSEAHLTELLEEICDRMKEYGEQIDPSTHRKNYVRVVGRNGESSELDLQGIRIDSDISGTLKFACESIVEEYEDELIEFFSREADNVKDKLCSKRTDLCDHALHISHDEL
UniProt Q6PJW8: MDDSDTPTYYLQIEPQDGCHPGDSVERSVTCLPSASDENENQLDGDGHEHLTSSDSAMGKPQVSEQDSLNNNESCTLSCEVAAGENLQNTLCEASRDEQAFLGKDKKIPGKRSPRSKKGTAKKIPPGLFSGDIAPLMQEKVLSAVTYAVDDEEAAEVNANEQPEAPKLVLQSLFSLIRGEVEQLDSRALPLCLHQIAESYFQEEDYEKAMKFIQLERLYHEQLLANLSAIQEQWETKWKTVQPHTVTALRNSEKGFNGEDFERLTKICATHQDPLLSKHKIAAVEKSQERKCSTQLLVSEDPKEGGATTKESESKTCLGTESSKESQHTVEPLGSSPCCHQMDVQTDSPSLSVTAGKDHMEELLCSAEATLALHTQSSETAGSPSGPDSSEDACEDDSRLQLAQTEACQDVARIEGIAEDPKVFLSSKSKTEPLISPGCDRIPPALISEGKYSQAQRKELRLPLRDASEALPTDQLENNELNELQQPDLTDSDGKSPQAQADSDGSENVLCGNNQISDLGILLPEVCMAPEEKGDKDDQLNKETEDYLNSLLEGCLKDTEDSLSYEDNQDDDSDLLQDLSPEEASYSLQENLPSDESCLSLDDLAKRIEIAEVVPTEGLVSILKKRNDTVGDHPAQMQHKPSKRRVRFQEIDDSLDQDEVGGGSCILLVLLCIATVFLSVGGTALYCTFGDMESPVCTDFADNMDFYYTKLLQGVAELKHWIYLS

Compound: C1CCN(C1)C(=O)NC2=CC=CC(=C2)NC3=NC=C(C(=N3)NCCC4=CN=CN4)Br
Assay: log2 fold change, soluble protein after heating vs DMSO (PISA); higher = thermal stabilisation; K562 lysate, 10 uM; active = over 0.2 and 3.5 SD of the protein, either way, in both replicates (recomputed)
Summary of the method: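 Quantification was by TMTpro 16plex LC-MS/MS with equalised channel sums, applied to the supernatant after 21,000xg for 90 min. Samples were crude K562 extract at 1 mg/mL protein in PBS pH 7.4 with 1 mM MgCl2, treated with 10 μM compound for 30 min, heated for 3 min across 48°C-58°C, pooled and brought to 0.5% NP-40 at 4°C. Values are log-two fold changes in thermal stability relative to solvent controls, from duplicates.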

log2 fold change, inactive:
CNOT10 (UniProt Q9H9A5) -0.024
COPA isoform 2 (UniProt P53621) -0.027
COPS3 (UniProt Q9UNS2) -0.027
COX7A2 (UniProt P14406) -0.076
CNOT6 (UniProt Q9ULM6) -0.034
CNOT7 (UniProt Q9UIV1) 0.001
CNOT3 (UniProt O75175) -0.08
COX5A (UniProt P20674) 0.048
COPRS (UniProt Q9NQ92) -0.049
COQ7 (UniProt Q99807) 0.009
COTL1 (UniProt Q14019) 0.022
COX11 (UniProt Q9Y6N1) 0.037
CRADD (UniProt P78560) -0.074
COMMD1 (UniProt Q8N668) 0.047
CNOT1 (UniProt A5YKK6) -0.016
CPSF7 isoform 3 (UniProt Q8N684) -0.008
COMTD1 (UniProt Q86VU5) -0.022
COX18 (UniProt Q8N8Q8) 0.059
COX19 (UniProt Q49B96) 0.048
COPZ1 isoform 4 (UniProt P61923) -0.08
CPSF1 (UniProt Q10570) -0.007
CNPY2 (UniProt Q9Y2B0) 0.009
CNST (UniProt Q6PJW8) -0.022

Quoted from the listing for reference:
log2 fold change, inactive:
COX19 (UniProt Q49B96) 0.048
COPZ1 isoform 4 (UniProt P61923) -0.08
